Laboratory results: PubChem BioAssay AID1259327 (Drosophila RNAi Screening Center, 2017)

- Assay: 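Knock-downs altering cellular ATP with no metal added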
- System: Drosophila S2R+ cells
- Knock-down reagent: long dsRNA against Drosophila genes
- Timing: 5 days (water added on day 4, read one day later)
- Treatment: water added as vehicle, no metal, one day before read-out
- Measured: 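Total ATP measured by luciferase light, scaled to plate mean, duplicates averaged, then z-scored across plates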
- Direction: ATP z-score: higher = more total ATP than typical wells; ATP luminescence: higher = more total ATP
- Active means: 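Called active when the ATP z-score exceeds 1.5 or falls below -1.5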
- Calls: active = hit: ATP up or down; inactive = no clear ATP change
Here is an unselected part of about 3,100 reagents. 378 of all reagents (12%) count as active. 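Hits include both directions; z-score sign shows ATP rise or fall; raw luminescence values are not plate-normalised.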 The numbers tell different reagents against one gene apart. The record does not give: the amount of reagent.

no.	target	dsRNA no.	ATP z-score, duplicate mean	ATP luminescence, replicate 1 (RLU)	ATP luminescence, replicate 2 (RLU)	outcome
1	Tl (GeneID 43222)	1	0.0547	7.36e5	6.87e5	inactive
2	Tl (GeneID 43222)	2	2.22	5.47e5	6.49e5	active
3	Tmtc1 (GeneID 33455)	1	-0.276	7.27e5	6.29e5	inactive
4	Tmtc1 (GeneID 33455)	2	1.43	8.47e5	8.60e5	inactive
5	Vha100-2 (GeneID 42216)	1	0.75	8.10e5	7.56e5	inactive
6	Vha100-2 (GeneID 42216)	2	-0.234	8.46e5	7.47e5	inactive
7	Calx (GeneID 42481)	1	-0.291	3.15e5	6.58e5	inactive
8	Calx (GeneID 42481)	2	-0.0915	3.26e5	6.72e5	inactive
9	Calx (GeneID 42481)	3	-1.35	4.54e5	4.76e5	inactive
10	Calx (GeneID 42481)	4	-0.0842	8.53e5	8.26e5	inactive
11	Ir60a (GeneID 37881)	1	0.485	7.88e5	7.67e5	inactive
12	Ir60a (GeneID 37881)	2	-1.43	3.73e5	3.45e5	inactive
13	Gr43a (GeneID 35655)	1	0.205	6.70e5	6.05e5	inactive
14	Gr43a (GeneID 35655)	2	-1.13	4.00e5	3.77e5	inactive

Reprinted from the entries so far, 4 entries:
no.	target	dsRNA no.	ATP z-score, duplicate mean	ATP luminescence, replicate 1 (RLU)	ATP luminescence, replicate 2 (RLU)	outcome
7	Calx (GeneID 42481)	1	-0.291	3.15e5	6.58e5	inactive
8	Calx (GeneID 42481)	2	-0.0915	3.26e5	6.72e5	inactive
9	Calx (GeneID 42481)	3	-1.35	4.54e5	4.76e5	inactive
10	Calx (GeneID 42481)	4	-0.0842	8.53e5	8.26e5	inactive

The list goes on.
no.	target	dsRNA no.	ATP z-score, duplicate mean	ATP luminescence, replicate 1 (RLU)	ATP luminescence, replicate 2 (RLU)	outcome
15	Or85c (GeneID 41008)	1	-0.37	2.95e5	6.91e5	inactive
16	Or85c (GeneID 41008)	2	-0.617	3.45e5	5.33e5	inactive
17	CG13893 (GeneID 38074)	1	0.429	5.72e5	7.45e5	inactive
18	CG13893 (GeneID 38074)	2	2.06	5.81e5	6.68e5	active
19	CG7536 (GeneID 32786)	1	0.436	8.26e5	6.78e5	inactive
20	CG7536 (GeneID 32786)	2	1.1	5.28e5	5.53e5	inactive
21	fusl (GeneID 33765)	1	-0.552	3.54e5	5.32e5	inactive
22	fusl (GeneID 33765)	2	0.506	8.96e5	8.72e5	inactive
23	5-HT1B (GeneID 37191)	1	-0.517	5.74e5	5.72e5	inactive
24	5-HT1B (GeneID 37191)	2	0.562	9.45e5	8.95e5	inactive
25	VGAT (GeneID 36574)	1	-1.64	4.48e5	4.94e5	active
26	Tsp47F (GeneID 36230)	1	0.235	7.18e5	5.63e5	inactive
27	pcx (GeneID 31204)	1	-0.339	6.80e5	7.33e5	inactive
28	pcx (GeneID 31204)	2	-2.09	6.66e5	6.85e5	active
